The values below come from patent US20240294636A1 (YALE UNIVERSITY, published 2024).

The chains behind the UniProt entries cited, without tags or fusion partners. Residues count along the entry.
UniProt O08722, residues 27-945: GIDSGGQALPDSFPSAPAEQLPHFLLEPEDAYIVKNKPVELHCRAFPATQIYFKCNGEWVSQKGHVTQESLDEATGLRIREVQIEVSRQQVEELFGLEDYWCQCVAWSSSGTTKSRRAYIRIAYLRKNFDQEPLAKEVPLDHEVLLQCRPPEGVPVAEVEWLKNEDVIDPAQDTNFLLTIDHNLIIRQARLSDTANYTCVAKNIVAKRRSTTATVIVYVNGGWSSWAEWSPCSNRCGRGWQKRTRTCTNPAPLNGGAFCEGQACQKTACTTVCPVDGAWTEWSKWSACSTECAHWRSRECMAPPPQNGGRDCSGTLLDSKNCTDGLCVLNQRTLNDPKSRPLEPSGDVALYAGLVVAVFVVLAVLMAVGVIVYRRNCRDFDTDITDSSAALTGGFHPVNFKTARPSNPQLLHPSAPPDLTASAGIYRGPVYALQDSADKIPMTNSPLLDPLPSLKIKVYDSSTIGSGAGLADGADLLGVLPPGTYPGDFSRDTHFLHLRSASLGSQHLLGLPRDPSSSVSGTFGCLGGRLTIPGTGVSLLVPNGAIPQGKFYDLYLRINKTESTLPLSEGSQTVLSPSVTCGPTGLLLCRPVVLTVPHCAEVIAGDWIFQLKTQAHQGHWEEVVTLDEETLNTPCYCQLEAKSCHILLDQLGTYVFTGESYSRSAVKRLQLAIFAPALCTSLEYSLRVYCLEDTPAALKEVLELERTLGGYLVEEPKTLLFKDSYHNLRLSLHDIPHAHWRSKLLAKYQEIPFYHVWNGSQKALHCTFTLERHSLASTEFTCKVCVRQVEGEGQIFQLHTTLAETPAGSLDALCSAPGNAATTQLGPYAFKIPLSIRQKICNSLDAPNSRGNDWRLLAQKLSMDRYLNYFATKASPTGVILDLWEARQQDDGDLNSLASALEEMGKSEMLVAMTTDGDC

These are yes or no findings as the source states them, for the method shown. Binding seen in cells or lysates may run through a third protein. Some entries that bind do so weakly or less than the wild type. Sequences can lack the tags named with a protein.

The target in this experiment is T1, Claudin5 (in porcine aortic endothelial cells transfected with rat Unc5B-GFP) (Sus scrofa) (UniProt C3VML1).
T1 sequence: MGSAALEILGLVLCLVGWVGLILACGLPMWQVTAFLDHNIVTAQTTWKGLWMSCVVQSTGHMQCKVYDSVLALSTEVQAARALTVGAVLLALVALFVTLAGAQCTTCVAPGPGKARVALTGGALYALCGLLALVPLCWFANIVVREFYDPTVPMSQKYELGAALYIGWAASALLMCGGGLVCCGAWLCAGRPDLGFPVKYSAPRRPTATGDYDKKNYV
Kind of experiment: co-immunoprecipitation from PAECs transfected with rat Unc5B-GFP.

“rat Unc5B coupled to GFP (expressed in porcine aortic endothelial cells) (from UniProt O08722 27-945) (receptor)”: the binding result is reported as “binds”.
